In PubChem BioAssay AID248 (DTP/NCI, 2004):
The list does not hold the whole screen: it is rich in T/C values a quarter to a half above the control, in often repeated tests (any T/C) and in doses without a T/C. Other doses and runs of a compound stand elsewhere. T/C gives the treated animals as a percentage of the vehicle group. Some doses have a count of surviving animals in place of a T/C: the source files T/C as zero there, which appears to mark a toxic dose or a test without result, not a measured value. Some doses without a T/C left all or most animals alive at the check, yet need not have been tolerated: survival well below the control is almost never listed, so the zero probably covers shortened survival too. Survivors were counted at the toxicity check, usually on the fifth day, unless a day is given; later deaths do not show. Schedules are NCI's codes, read here as Q, the interval in days (D) or hours (H), X, the number of doses. Some entries were tested several times; the results are listed from low to high. Some schedules carry Z or #; the key to these is not given. Where survival is the endpoint, the PubChem record calls one and a half times the control and up active, and a quarter to a half above the control has no call in these data; cut-offs in other NCI protocols can differ. Some T/C values are followed by the survivors on the day toxicity was checked, most often the fifth; without a count, all were alive then.

Tested on: L1210 leukemia ip in BDF1 mice, survival T/C
Experiment: NCI In Vivo Anticancer Drug Screen. Data for tumor model L1210 Leukemia (intraperitoneal) in B6D2F1 (BDF1) mice
Settings: T/C endpoint: mean survival time, higher T/C = longer survival
[1] = dose: 400.0 mg/kg/injection, schedule: Q01DX001 (ip), vehicle: saline
[2] = dose: 400.0 mg/kg/injection, schedule: Q04DX002 (ip), vehicle: Klucel (hydroxypropylcellulose) (HPC)
[3] = dose: 400.0 mg/kg/injection, schedule: Q04DX003 (ip), vehicle: Klucel (hydroxypropylcellulose) (HPC)
[4] = dose: 100.0 mg/kg/injection, schedule: Q01DX009 (ip), vehicle: saline with Tween-80
[5] = dose: 200.0 mg/kg/injection, schedule: Q04DX003 (ip), vehicle: Klucel (hydroxypropylcellulose) (HPC)
[6] = dose: 25.0 mg/kg/injection, schedule: Q04DX003 (ip), vehicle: Klucel (hydroxypropylcellulose) (HPC)
[7] = dose: 50.0 mg/kg/injection, schedule: Q04DX003 (ip), vehicle: Klucel (hydroxypropylcellulose) (HPC)
[8] = dose: 100.0 mg/kg/injection, schedule: Q04DX003 (ip), vehicle: Klucel (hydroxypropylcellulose) (HPC)
[9] = dose: 120.0 mg/kg/injection, schedule: Q01DX Z (ip), vehicle: carboxymethylcellulose (CMC)

CN(C)[C@@H]1C(=O)C(C(N)=O)=C(O)[C@@]2(O)C(=O)C3=C(O)c4c(O)cccc4C[C@H]3C[C@@H]12
survivor count (dose: 75.0 mg/kg/injection, schedule: Q01DX009 (ip), vehicle: other): 2 of 6
survivor count (dose: 100.0 mg/kg/injection, schedule: Q01DX001 (ip), vehicle: other): 2 of 6
survivor count (dose: 115.0 mg/kg/injection, schedule: Q04DX003 (ip), vehicle: other): 0 of 6
survivor count (dose: 170.0 mg/kg/injection, schedule: Q04DX003 (ip), vehicle: other): 0 of 6
survivor count (dose: 200.0 mg/kg/injection, schedule: Q01DX001 (ip), vehicle: other): 0 of 6
survivor count (dose: 200.0 mg/kg/injection, schedule: Q01DX001 (ip), vehicle: saline): 1 of 6
survivor count (dose: 400.0 mg/kg/injection, schedule: Q01DX001 (ip), vehicle: other): 0 of 6
survivor count [1]: 0 of 6

O=S1(=O)C=C(Br)C1
survivor count (dose: 200.0 mg/kg/injection, schedule: Q04DX002 (ip), vehicle: Klucel (hydroxypropylcellulose) (HPC)): 1 of 3
survivor count [2]: 2 of 3

C[n+]1ccn(CCCl)c1
survivor count (dose: 200.0 mg/kg/injection, schedule: Q01DX Z (ip), vehicle: saline): 5 of 6

CC(=O)c1cc(C)ccc1O
survivor count [3]: 2 of 6

COC(=O)C(CSCSC)NC(=O)/C=C/c1ccccc1Cl (configuration not stated)
survivor count [4]: 6 of 6

CC(=O)Oc1ccc([N+](=O)[O-])cc1
T/C (dose: 100.0 mg/kg/injection, schedule: Q04DX002 (ip), vehicle: Klucel (hydroxypropylcellulose) (HPC)): 125 % of control
survivor count [2]: 1 of 3

CC(OC(=O)CCN1CC1)C1CC1 (configuration not stated)
survivor count (dose: 40.0 mg/kg/injection, schedule: Q01DX009 (ip), vehicle: Klucel (hydroxypropylcellulose) (HPC)): 4 of 6
survivor count (dose: 80.0 mg/kg/injection, schedule: Q01DX009 (ip), vehicle: Klucel (hydroxypropylcellulose) (HPC)): 1 of 6
survivor count [5]: 2 of 6
survivor count [3]: 0 of 6

N=C(N)N/N=C(/c1ccccc1)c1ccc(Oc2ccc(/C(=N/NC(=N)N)c3ccccc3)cc2)cc1
survivor count (dose: 120.0 mg/kg/injection, schedule: Q01DX Z (oral), vehicle: methylcellulose (MC)): 6 of 6

CCN(CC)CCNc1ccc(CO)c2oc3ccccc3c(=O)c12
survivor count (dose: 400.0 mg/kg/injection, schedule: Q01DX009 (ip), vehicle: saline): 0 of 6

Cc1ncc(CO)c(C2NOCc3nscc32)c1O (configuration not stated)
survivor count (dose: 6.25 mg/kg/injection, schedule: Q01DX009 (ip), vehicle: Klucel (hydroxypropylcellulose) (HPC)): 6 of 6
survivor count [6]: 6 of 6
survivor count [7]: 5 of 6
survivor count (dose: 100.0 mg/kg/injection, schedule: Q01DX001 (ip), vehicle: Klucel (hydroxypropylcellulose) (HPC)): 2 of 6
survivor count (dose: 200.0 mg/kg/injection, schedule: Q01DX001 (ip), vehicle: Klucel (hydroxypropylcellulose) (HPC)): 0 of 6
survivor count (dose: 400.0 mg/kg/injection, schedule: Q01DX001 (ip), vehicle: Klucel (hydroxypropylcellulose) (HPC)): 0 of 6

CSc1nccc2c1ncn2C1OC(CO)C(O)C1O (configuration not stated)
survivor count [1]: 0 of 4

NC1=NCCCN1
survivor count (dose: 200.0 mg/kg/injection, schedule: Q04DX003 (ip), vehicle: saline with Tween-80): 2 of 6
survivor count (dose: 400.0 mg/kg/injection, schedule: Q04DX003 (ip), vehicle: saline with Tween-80): 0 of 6

COC(=O)[C@H]1[C@H]2C[C@@H]3c4[nH]c5cc(OC)ccc5c4CCN3C[C@H]2C[C@@H](OC(=O)c2cccc(N(C)C)c2)[C@@H]1OC
survivor count (dose: 12.5 mg/kg/injection, schedule: Q01DX009 (ip), vehicle: Klucel (hydroxypropylcellulose) (HPC)): 4 of 6
survivor count [6]: 4 of 4
survivor count [7]: 3 of 4
survivor count [8]: 0 of 4
survivor count [5]: 2 of 4
survivor count [3]: 0 of 4

CC(=N\N=C(N)N)/C(N=Nc1ccc(S(N)(=O)=O)cc1)=N\N=C(N)N
T/C (dose: 30.0 mg/kg/injection, schedule: Q01DX Z (ip), vehicle: carboxymethylcellulose (CMC)): 141 % of control
T/C [9]: 132 and 140 % of control [5 of 6 alive]
survivor count [9]: 2 of 6
T/C (dose: 120.0 mg/kg/injection, schedule: Q01DX Z (oral), vehicle: carboxymethylcellulose (CMC)): 129 % of control
survivor count (dose: 240.0 mg/kg/injection, schedule: Q01DX Z (ip), vehicle: carboxymethylcellulose (CMC)): 0 of 6
survivor count (dose: 480.0 mg/kg/injection, schedule: Q01DX Z (ip), vehicle: carboxymethylcellulose (CMC)): 0 of 6

CC(C)(C)C1CCC(OS(C)(=O)=O)C(OS(C)(=O)=O)C1 (configuration not stated)
survivor count [7]: 1 of 6
survivor count [8]: 0 of 6
survivor count [5]: 0 of 6
survivor count [3]: 0 of 6

CCCCCCCCCCCCCCC1CC(=O)OC1=O (configuration not stated)
survivor count (dose: 400.0 mg/kg/injection, schedule: Q01DX009 (ip), vehicle: Klucel (hydroxypropylcellulose) (HPC)): 0 of 6

CCOC(=O)CNc1cccc(C(F)(F)F)c1
survivor count (dose: 400.0 mg/kg/injection, schedule: Q01DX009 (ip), vehicle: carboxymethylcellulose (CMC)): 3 of 6
T/C [2]: 125 % of control

CSc1ccc(NC(=O)Oc2ccc3c(C)cc(=O)oc3c2)cc1
T/C [4]: 90, 90 [5 of 6 alive], 97, 99 % of control
survivor count (dose: 200.0 mg/kg/injection, schedule: Q01DX009 (ip), vehicle: saline with Tween-80): 4 of 6 and 3 of 3
survivor count (dose: 400.0 mg/kg/injection, schedule: Q01DX009 (ip), vehicle: saline with Tween-80): 3 of 3 and 6 of 6

CC(=O)OS(C)(=O)=O
survivor count (dose: 200.0 mg/kg/injection, schedule: Q01DX009 (ip), vehicle: Klucel (hydroxypropylcellulose) (HPC)): 1 of 6
survivor count [5]: 3 of 6
survivor count [3]: 0 of 6

CCC(=O)NC1=C(N2CC2)C(=O)C(NC(=O)CC)=C(N2CC2)C1=O
T/C (dose: 0.62 mg/kg/injection, schedule: Q01DX009 (ip), vehicle: Klucel (hydroxypropylcellulose) (HPC)): 135 % of control
T/C (dose: 1.25 mg/kg/injection, schedule: Q04DX003 (ip), vehicle: Klucel (hydroxypropylcellulose) (HPC)): 146 % of control
T/C (dose: 2.5 mg/kg/injection, schedule: Q01DX001 (ip), vehicle: saline with Tween-80): 135 % of control
T/C (dose: 2.5 mg/kg/injection, schedule: Q01DX009 (ip), vehicle: Klucel (hydroxypropylcellulose) (HPC)): 147 % of control
T/C (dose: 5.0 mg/kg/injection, schedule: Q01DX001 (ip), vehicle: saline): 145 % of control
survivor count (dose: 10.0 mg/kg/injection, schedule: Q01DX009 (ip), vehicle: Klucel (hydroxypropylcellulose) (HPC)): 8 of 10
survivor count (dose: 19.0 mg/kg/injection, schedule: Q01DX001 (ip), vehicle: saline): 0 of 6
survivor count (dose: 20.0 mg/kg/injection, schedule: Q01DX001 (ip), vehicle: saline with Tween-80): 10 of 10
survivor count (dose: 20.0 mg/kg/injection, schedule: Q01DX009 (ip), vehicle: saline): 6 of 6
survivor count (dose: 20.0 mg/kg/injection, schedule: Q04DX003 (ip), vehicle: Klucel (hydroxypropylcellulose) (HPC)): 3 of 10
survivor count (dose: 38.0 mg/kg/injection, schedule: Q01DX001 (ip), vehicle: saline): 1 of 6
survivor count (dose: 40.0 mg/kg/injection, schedule: Q01DX001 (ip), vehicle: saline with Tween-80): 7 of 10
survivor count (dose: 40.0 mg/kg/injection, schedule: Q01DX009 (ip), vehicle: saline): 6 of 6
survivor count (dose: 40.0 mg/kg/injection, schedule: Q04DX003 (ip), vehicle: Klucel (hydroxypropylcellulose) (HPC)): 3 of 10
survivor count (dose: 75.0 mg/kg/injection, schedule: Q01DX001 (ip), vehicle: saline): 2 of 6 and 4 of 6
survivor count (dose: 150.0 mg/kg/injection, schedule: Q01DX001 (ip), vehicle: saline): 2 of 6 and 4 of 6
survivor count (dose: 300.0 mg/kg/injection, schedule: Q01DX001 (ip), vehicle: saline): 0 of 6
